Measured values reported in the supplement of paper PMC10849652.
Some of the results follow.

Chains of the proteins cited; added tags and fusions are not shown. Lines headed by an entry give the natural chain unless they say otherwise; changes in a name come on top.
UniProt Q9HD45: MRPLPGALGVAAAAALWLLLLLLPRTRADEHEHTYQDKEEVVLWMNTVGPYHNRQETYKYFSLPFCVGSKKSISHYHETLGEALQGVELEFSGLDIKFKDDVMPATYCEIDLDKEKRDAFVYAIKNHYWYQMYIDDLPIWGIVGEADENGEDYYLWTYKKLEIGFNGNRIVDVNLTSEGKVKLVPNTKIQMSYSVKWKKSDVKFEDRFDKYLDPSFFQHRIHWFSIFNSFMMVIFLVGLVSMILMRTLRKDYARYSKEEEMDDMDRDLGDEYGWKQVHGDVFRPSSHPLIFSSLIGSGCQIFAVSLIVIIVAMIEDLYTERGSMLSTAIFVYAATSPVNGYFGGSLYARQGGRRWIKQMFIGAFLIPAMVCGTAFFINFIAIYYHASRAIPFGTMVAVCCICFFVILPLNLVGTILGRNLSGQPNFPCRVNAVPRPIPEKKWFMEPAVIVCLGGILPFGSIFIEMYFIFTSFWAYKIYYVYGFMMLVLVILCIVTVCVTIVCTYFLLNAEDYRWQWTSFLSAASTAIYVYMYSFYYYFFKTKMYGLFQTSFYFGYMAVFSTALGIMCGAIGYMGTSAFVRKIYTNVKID
UniProt Q15363: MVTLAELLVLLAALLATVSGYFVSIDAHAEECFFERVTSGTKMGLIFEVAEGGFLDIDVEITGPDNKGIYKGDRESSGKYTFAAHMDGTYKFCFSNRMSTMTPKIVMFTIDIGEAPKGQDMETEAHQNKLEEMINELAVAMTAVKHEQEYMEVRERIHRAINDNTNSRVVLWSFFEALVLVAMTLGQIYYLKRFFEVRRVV
UniProt Q8TDI8: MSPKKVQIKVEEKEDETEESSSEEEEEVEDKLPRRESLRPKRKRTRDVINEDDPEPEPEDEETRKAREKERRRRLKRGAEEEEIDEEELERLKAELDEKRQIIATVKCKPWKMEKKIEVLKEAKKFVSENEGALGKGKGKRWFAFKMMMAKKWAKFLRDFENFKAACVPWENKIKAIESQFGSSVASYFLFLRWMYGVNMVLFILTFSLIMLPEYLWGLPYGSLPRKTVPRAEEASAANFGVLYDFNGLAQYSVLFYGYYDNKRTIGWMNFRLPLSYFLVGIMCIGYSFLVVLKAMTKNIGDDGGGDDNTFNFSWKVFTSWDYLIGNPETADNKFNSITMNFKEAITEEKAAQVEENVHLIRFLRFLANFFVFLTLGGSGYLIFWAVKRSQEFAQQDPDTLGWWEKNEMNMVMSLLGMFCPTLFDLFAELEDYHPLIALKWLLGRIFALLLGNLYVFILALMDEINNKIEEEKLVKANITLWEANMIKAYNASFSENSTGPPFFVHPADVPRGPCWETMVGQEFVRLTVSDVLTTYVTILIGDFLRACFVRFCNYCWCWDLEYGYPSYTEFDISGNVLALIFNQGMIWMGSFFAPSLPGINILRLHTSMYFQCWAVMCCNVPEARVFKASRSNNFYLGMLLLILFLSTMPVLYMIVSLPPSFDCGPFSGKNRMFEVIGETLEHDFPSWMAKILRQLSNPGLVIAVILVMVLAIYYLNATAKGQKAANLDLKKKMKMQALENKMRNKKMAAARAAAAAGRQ
UniProt Q12893: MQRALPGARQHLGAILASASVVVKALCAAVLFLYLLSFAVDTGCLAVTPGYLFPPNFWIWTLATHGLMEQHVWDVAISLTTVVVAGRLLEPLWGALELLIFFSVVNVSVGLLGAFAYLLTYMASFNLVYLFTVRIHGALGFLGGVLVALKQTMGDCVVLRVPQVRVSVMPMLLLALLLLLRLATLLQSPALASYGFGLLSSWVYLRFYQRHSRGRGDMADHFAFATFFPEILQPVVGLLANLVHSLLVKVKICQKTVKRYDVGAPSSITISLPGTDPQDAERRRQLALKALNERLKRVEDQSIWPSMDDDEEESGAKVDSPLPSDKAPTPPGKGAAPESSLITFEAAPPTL
UniProt Q9NX00: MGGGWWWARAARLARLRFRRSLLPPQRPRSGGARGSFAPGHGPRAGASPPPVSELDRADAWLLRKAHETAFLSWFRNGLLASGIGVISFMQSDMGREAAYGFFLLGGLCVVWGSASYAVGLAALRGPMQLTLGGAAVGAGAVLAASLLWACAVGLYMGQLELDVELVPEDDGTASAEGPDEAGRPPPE
UniProt Q9UM00: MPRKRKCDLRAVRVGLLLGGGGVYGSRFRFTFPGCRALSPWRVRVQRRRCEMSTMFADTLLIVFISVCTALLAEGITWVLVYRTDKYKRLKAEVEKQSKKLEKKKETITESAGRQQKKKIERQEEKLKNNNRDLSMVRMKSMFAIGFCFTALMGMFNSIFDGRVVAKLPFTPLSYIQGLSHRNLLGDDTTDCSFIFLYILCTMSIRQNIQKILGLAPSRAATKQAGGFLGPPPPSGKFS
UniProt Q9Y2S6, whole entry, looked up: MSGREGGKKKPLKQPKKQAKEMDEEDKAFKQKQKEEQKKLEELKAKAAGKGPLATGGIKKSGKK
UniProt Q13445: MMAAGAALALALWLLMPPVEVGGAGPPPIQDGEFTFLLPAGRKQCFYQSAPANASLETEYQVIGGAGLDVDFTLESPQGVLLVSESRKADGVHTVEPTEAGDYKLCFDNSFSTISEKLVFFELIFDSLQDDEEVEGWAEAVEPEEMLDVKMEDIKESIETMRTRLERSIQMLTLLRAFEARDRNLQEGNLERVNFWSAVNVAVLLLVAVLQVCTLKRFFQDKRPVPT
UniProt Q0P6H9: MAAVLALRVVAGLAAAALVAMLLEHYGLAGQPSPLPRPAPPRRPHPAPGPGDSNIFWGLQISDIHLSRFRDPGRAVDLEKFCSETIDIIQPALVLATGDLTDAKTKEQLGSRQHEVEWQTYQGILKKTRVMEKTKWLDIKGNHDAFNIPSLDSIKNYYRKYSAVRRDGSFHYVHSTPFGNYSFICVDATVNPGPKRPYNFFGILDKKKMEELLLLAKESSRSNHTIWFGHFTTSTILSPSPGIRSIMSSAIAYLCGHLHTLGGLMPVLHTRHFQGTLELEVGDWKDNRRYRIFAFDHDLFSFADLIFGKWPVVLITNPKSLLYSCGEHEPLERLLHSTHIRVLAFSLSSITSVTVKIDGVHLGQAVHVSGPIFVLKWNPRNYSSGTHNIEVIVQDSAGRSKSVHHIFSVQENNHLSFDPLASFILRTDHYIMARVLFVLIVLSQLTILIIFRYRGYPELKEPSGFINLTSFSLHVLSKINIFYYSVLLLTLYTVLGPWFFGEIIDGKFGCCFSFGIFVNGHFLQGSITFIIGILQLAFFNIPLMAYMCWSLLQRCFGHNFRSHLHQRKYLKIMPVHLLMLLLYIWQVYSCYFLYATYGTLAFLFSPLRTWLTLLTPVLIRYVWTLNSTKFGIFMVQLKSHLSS
UniProt Q9H7F4: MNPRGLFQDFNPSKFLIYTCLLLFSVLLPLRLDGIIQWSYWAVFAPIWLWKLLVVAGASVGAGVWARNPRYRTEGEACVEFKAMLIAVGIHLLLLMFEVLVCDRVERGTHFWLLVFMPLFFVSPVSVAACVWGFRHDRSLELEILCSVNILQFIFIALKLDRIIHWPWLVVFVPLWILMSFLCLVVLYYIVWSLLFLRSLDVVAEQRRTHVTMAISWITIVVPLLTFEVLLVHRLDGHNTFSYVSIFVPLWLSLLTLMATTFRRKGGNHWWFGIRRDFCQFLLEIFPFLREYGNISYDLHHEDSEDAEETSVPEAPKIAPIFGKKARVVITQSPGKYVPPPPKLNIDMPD
UniProt Q5BJD5: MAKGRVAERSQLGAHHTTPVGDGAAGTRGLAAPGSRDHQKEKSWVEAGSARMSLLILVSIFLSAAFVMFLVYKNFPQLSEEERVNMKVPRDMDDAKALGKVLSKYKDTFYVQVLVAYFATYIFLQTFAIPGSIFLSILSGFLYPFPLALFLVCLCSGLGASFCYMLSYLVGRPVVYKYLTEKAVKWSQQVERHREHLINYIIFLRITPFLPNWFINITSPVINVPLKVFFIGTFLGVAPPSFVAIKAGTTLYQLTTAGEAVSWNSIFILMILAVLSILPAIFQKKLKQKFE
UniProt Q9H3N1: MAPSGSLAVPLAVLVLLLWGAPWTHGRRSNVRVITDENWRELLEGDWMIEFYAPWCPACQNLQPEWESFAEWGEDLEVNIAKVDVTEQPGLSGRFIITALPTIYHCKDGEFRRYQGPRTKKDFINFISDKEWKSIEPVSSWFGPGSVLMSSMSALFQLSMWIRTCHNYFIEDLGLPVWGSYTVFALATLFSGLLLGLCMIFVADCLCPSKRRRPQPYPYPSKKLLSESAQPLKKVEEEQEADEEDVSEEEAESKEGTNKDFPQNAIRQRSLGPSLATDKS
UniProt Q9Y3Q3: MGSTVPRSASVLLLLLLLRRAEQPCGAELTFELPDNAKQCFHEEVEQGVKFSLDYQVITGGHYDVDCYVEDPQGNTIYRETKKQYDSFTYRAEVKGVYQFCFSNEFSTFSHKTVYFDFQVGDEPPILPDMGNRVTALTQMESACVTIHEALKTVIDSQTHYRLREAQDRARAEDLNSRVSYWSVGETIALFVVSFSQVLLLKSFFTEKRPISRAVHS
UniProt Q8NBN3: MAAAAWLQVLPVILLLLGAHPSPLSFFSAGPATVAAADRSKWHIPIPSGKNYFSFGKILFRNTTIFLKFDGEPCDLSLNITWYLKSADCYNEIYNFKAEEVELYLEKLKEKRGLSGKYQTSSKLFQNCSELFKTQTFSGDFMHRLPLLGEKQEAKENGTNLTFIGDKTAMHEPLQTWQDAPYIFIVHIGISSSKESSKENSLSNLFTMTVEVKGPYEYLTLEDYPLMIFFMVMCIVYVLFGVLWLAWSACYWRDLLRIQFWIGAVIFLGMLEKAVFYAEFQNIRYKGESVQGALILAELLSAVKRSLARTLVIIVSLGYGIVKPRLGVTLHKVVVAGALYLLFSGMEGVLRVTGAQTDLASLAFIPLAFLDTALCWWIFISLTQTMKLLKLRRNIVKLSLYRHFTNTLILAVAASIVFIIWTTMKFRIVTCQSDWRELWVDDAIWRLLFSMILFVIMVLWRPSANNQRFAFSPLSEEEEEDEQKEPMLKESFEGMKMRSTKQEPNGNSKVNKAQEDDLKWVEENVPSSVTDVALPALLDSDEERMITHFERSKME
UniProt P42167: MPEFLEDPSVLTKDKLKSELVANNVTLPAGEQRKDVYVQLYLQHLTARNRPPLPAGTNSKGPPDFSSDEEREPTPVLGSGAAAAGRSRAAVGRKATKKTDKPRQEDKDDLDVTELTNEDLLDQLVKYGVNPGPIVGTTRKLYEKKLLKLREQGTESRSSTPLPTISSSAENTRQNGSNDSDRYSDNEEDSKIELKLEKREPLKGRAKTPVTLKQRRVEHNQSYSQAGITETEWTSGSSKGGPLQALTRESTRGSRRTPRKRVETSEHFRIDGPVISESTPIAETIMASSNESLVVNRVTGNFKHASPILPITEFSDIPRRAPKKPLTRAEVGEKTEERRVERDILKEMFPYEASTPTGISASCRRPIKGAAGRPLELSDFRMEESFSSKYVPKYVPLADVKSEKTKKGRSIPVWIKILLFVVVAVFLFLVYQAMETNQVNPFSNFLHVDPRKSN
UniProt P63313: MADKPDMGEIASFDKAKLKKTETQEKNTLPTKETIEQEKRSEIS
UniProt P57088: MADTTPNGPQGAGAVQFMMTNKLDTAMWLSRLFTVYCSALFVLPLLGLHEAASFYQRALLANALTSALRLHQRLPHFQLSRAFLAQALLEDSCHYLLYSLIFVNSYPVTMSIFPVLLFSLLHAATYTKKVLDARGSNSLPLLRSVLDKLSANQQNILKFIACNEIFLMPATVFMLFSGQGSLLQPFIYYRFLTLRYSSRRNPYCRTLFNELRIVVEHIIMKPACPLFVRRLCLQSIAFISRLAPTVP
UniProt Q6PI78: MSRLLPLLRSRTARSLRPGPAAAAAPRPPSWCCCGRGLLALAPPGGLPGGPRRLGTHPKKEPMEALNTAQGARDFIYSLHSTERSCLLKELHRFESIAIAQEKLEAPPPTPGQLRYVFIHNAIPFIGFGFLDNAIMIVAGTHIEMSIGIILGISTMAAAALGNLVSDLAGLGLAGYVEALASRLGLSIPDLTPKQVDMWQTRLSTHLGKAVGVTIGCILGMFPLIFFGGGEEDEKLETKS
UniProt Q9NVH6: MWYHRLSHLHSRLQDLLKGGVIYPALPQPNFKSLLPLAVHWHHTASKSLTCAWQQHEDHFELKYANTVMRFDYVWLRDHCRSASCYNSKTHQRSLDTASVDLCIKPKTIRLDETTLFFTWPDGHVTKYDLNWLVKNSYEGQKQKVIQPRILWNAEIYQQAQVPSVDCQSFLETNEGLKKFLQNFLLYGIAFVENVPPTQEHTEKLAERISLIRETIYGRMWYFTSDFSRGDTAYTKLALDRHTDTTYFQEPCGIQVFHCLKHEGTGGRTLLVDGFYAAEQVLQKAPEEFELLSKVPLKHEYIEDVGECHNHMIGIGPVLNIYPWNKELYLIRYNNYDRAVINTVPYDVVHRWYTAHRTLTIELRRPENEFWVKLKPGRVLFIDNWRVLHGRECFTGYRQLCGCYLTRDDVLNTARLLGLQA
UniProt P17152: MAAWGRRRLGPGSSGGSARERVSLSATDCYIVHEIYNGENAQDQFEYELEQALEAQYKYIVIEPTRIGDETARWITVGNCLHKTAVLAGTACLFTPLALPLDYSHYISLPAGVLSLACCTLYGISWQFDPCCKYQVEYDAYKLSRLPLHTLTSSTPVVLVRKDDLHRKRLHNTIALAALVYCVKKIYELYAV

compound: CC[C@H](C)[C@@H](C(=O)N[C@@H]([C@@H](C)O)C(=O)N[C@@H](CC(C)C)C(=O)[C@]1(CO1)C)NC(=O)[C@H]([C@@H](C)CC)N(C)C(=O)C [epoxomicin]; experiment: log2 fold change, soluble protein after heating vs DMSO (PISA); higher = thermal stabilisation; K562 cells, 10 uM, 30 min; active = over 0.2 and 3.5 SD of the protein, either way, in both replicates (recomputed)
In short: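 K562 cells at 2×10^6 cells/mL were treated for 30 min with 10 μM compound, and aliquots were heated for 3 min over 48°C-58°C before pooling. Extraction used PBS with 0.5% NP-40 at 4°C, and soluble protein was the supernatant after 21,000xg for 90 min, measured by TMTpro 16plex LC-MS/MS with channel sums equalised. Thermal stability values, relative to control samples and from duplicates, are log2 fold changes.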

log2 fold change, inactive:
TM9SF3 (UniProt Q9HD45) 0.02, TMA16 (UniProt Q96EY4) -0.225, TMEM167A (UniProt Q8TBQ9) 0.005, TMED2 (UniProt Q15363) 0.031, TMC1 (UniProt Q8TDI8) -0.311, TMEM115 (UniProt Q12893) -0.001, TMEM160 (UniProt Q9NX00) -0.065, TMCO1 (UniProt Q9UM00) -0.027, TLN1 (UniProt Q9Y490) 0.044, TMA7 (UniProt Q9Y2S6) 0.001, TMX4 (UniProt Q9H1E5) -0.002, TMED1 (UniProt Q13445) 0.107, TMEM245 (UniProt Q9H330) -0.052, TMEM68 (UniProt Q96MH6) -0.063, TMEM199 (UniProt Q8N511) -0.001, TMEM62 (UniProt Q0P6H9) 0.059, TMEM97 (UniProt Q5BJF2) -0.056, TMEM185B (UniProt Q9H7F4) -0.019, TMEM209 (UniProt Q96SK2) 0.07, TMEM63A (UniProt O94886) -0.023, TMEM41B (UniProt Q5BJD5) -0.197, TMX1 (UniProt Q9H3N1) 0.004, TMED3 (UniProt Q9Y3Q3) 0.108, TM2D3 (UniProt Q9BRN9) -0.1, TMEM87A (UniProt Q8NBN3) 0.041, TMPO (UniProt P42167) 0.008, TMSB10 (UniProt P63313) 0.297, TMEM33 (UniProt P57088) 0.002, TMEM65 (UniProt Q6PI78) -0.001, TMED4 (UniProt Q7Z7H5) -0.001, TMLHE isoform 8 (UniProt Q9NVH6) -0.016, TMEM11 (UniProt P17152) -0.022, TMOD1 (UniProt P28289) 0.054, TMOD2 (UniProt Q9NZR1) 0.016, TMEM189 (UniProt A5PLL7) -0.08, TMED10 (UniProt P49755) 0.184, TMUB1 (UniProt Q9BVT8) 0.205, TMOD3 (UniProt Q9NYL9) 0.034
